# Laboratory results taken from patent US8563690B2, “Modulation of platelet aggregation” (The Board of Trustees of the University of Illinois, priority 2008, dated 2013).
# At least one peptide structure holds a part that was inferred or is arguable (an end, a ring closure or a residue). Residues, ends and D or L forms follow the SMILES beside them. *: point of attachment. Myristoyl = CCCCCCCCCCCCCC(=O)*
# Tests used:
# [1] = system: integrin β3 cytoplasmic Y747 and Y759; experiment: Thrombin-induced integrin β3 tyrosine phosphorylation (Western blot); type: cell-based, human; conditions: 250 μM; α-thrombin 0.05 U/ml
# platelets [2] = experiment: ATP release / dense granule secretion induced by low concentration of thrombin; type: cell-based, human
# platelets [3] = experiment: Platelet stable adhesion on immobilized fibrinogen (phosphatase assay); type: cell-based, human
# Protocol: FIG. 2A-C: Quantitative analysis of the effect of myristoylated RGT peptide on platelet stable adhesion and spreading on immobilized fibrinogen. FIG. 2A: Platelets were added to microtiter wells precoated with fibrinogen and allowed to adhere for 30 min at 37° C. The phosphatase activity in supernatants (open columns) or in adherent platelets (close columns) was quantified by a PNPP assay. Data of three experiments (means and SD) were presented as the ratio of the phosphatase activity of platelet samples over blank. The asterisks indicate peptide concentration (* 62.5 μM; ** 125 μM; *** 250 μM). FIG. 2B: Microphotographs of platelets adherent on fibrinogen and treated with DMSO (B1), myristic acid and RGT peptide at a concentration of 250 μM (B2), scrambled myr-GRT at 250 μM (B3), myr-RGT at 62.5 (B4), 125 (B5) and 250 μM (B6). DIC: differential interference contrast microscopy; IF: immunofluorescence assay with anti-integrin β3 antibody. FIG. 2C: Platelets were incubated in suspension with different treatments as indicated for 30 min at 37° C. The phosphatase activity in supernatants (open columns) or in remaining platelet suspensions (close columns) was quantified by a PNPP assay. Data are arranged as in FIG. 2A. An important function of integrin αIIbβ3 outside-in signaling is to mediate stable platelet adhesion and spreading on immobilized ligands. […] For quantitative analysis of the effect of the RGT peptide on platelet adhesion, we used a phosphatase assay. […] Nonadherent platelets were removed by three vigorous washes with phosphate-buffered saline (PBS), and adherent platelets were quantified by a phosphatase assay. In addition, to monitor peptide-dependent platelet lysis, the platelet phosphatase activity was separately measured in the supernatant of the platelets in suspension or following their adhesion to fibrinogen by mixing with PNPP substrate solution (100 mM sodium acetate, 1% Triton X-100, 3 mg/ml p-nitrophenyl phosphate) for 60 min at 37° C. The enzyme reaction was stopped with 0.1 M NaOH and the optical density was measured at 405 nm with a microplate reader.
# Src-β3 complex = target: T1, Src-β3 complex (Homo sapiens, UniProt P12931); experiment: Co-immunoprecipitation of integrin β3 with Src from platelet lysates; type: cell-based; conditions: platelets preincubated with 250 μM
# T1 construct: co-immunoprecipitation experiments were completed using platelet lysates; endogenous in cells; host or cells: human platelets, NP-40 lysates
# washed platelets [4] = experiment: Thrombin-induced aggregation of washed platelets; type: cell-based, human; conditions: thrombin 0.1 U/ml
# platelets [5] = experiment: Platelet spreading on immobilized fibrinogen (DIC images); type: cell-based, human; conditions: 62.5-250 μM
# washed platelets [6] = experiment: Plasma-free platelet-mediated fibrin clot retraction with washed platelets; type: cell-based, human; conditions: measured at 60 min
# Protocol: FIG. 3A-B: Effects of myr-RGT on fibrin clot retraction and platelet aggregation. FIG. 3A: Platelets were washed and resuspended in HEPES buffer containing 2 mg/ml of human fibrinogen (see “Experimental Procedures”) and incubated with different peptides or their vehicles as indicated. Fibrin clot formation was initiated by adding 1 U/ml thrombin. Clot retraction was monitored over time and photographs of the clots were taken at different time points (lower panel). The asterisks indicate peptide concentration (* 62.5 μM; ** 125 μM; *** 250 μM). The histograms of the clot size were generated from the photographs by calculating the ratio of the surface area of the retracted clot versus that of the initial clot. FIG. 3B: Aggregation of non-treated or peptide-treated platelets was induced in an aggregometer at 37° C. under constant stirring (1000 rpm) by ADP (2 μM), ristocetin (1.25 mg/ml) in PRP or by thrombin (0.1 U/ml) in washed platelets preincubated with (A) DMSO, (B) myristic acid and RGT peptide at a concentration of 250 μM, (C) scrambled myr-GRT at 250 μM, myr-RGT at concentrations of (D) 62.5, (E) 125 and (F) 250 μM respectively.
# Platelet clot retraction is an essential step in platelet thrombus consolidation and is initiated following platelet activation as a late consequence of integrin outside-in signaling. It also relies on an efficient extracellular fibrinogen-integrin interaction as well as a stable integrin-cytoskeletal association. In order to investigate whether myr-RGT has an effect on this important platelet function, a plasma-free platelet clot retraction assay was performed using washed platelets pretreated with different peptides (see, e.g., Osdoit et al., 2001 and Podolnikova et al., 2003). […] Clot retraction was monitored over a 90 min time period by taking photographs at indicated time points using a digital camera. Clot retraction was quantified on the photographs by measuring the clot surface area with the NIH Image 1.67e software, and the data were processed using Excel 4.0. Results were expressed as percentage of retraction (%=area t/area t0×100%).
# P-selectin = P-selectin (CD62P) surface expression on thrombin-stimulated platelets; type: cell-based, human; conditions: 250 μM; thrombin 0.1 U/ml
compound,measurement,setting,value
CCCCCCCCCCCCCC(=O)N[C@@H](CCCNC(=N)N)C(=O)NCC(=O)N[C@H](C(=O)O)[C@@H](C)O [myr-RGT] (Myristoyl-Arg-Gly-Thr-OH; N-terminus and C-terminus assumed),phosphorylation of integrin β3 at Y747 and Y759,[1],almost completely abolished
same,ATP release / dense granule secretion,platelets [2],significantly inhibited
same,inhibition of platelet adhesion,platelets [3]; 125 μM,50%
same,inhibition of platelet adhesion,platelets [3]; 250 μM,maximal inhibition
same,effect on platelet stable adhesion on immobilized fibrinogen,platelets [3]; 62.5-250 μM,dose-dependently inhibited
same,co-immunoprecipitation of αIIb with β3,Src-β3 complex,had no effect
same,co-immunoprecipitation of β3 with Src,Src-β3 complex,abolished
same,"aggregation in response to thrombin, of controls",washed platelets [4]; 62.5 μM,60%
same,"aggregation in response to thrombin, of controls",washed platelets [4]; 125 μM,46%
same,"aggregation in response to thrombin, of controls",washed platelets [4]; 250 μM,39%
same,effect on platelet spreading on immobilized fibrinogen,platelets [5],dose-dependent inhibition
same,inhibition of clot retraction,washed platelets [6]; 62.5 μM,"weak, but recognizable, inhibition"
same,inhibition of clot retraction,washed platelets [6]; 125 μM,inhibition reached a full scale in terms of clot size
same,inhibition of clot retraction,washed platelets [6]; 250 μM,complete inhibition
same,inhibition of P-selectin exposure compared to the control,P-selectin,about 80%
